According to article PMC3738497:
Results are given in words; binding and its absence hold for the method and conditions named. In cells and extracts the contact can be indirect. Some entries that bind do so weakly or less than the wild type.

By UniProt entry, the sequences of proteins in these tests, tags left out. Residues count along the entry.
UniProt O75460, residues 19-977: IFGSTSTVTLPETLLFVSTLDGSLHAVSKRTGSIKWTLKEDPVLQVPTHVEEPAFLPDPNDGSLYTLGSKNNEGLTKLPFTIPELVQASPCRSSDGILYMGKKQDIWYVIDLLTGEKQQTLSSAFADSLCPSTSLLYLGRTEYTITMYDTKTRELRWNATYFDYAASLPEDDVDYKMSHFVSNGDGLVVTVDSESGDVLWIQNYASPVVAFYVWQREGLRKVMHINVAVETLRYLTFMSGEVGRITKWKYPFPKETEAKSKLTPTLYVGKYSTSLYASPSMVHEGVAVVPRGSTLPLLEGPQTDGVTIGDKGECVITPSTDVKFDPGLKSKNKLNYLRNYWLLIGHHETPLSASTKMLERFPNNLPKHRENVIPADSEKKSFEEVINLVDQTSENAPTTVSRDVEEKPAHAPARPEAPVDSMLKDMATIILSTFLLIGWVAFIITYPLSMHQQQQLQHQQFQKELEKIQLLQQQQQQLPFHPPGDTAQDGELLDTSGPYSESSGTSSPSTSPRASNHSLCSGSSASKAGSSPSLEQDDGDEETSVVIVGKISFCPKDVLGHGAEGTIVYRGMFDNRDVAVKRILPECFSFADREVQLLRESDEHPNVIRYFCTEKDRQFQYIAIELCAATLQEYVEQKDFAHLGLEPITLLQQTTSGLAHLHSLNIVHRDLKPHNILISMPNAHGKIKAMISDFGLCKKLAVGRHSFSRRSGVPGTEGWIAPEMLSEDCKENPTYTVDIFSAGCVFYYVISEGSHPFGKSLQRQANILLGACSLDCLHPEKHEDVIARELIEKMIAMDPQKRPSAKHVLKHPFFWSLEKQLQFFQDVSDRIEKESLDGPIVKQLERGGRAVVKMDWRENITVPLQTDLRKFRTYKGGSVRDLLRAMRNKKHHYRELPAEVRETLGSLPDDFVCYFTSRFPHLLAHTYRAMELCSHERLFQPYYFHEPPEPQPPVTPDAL
UniProt P16791: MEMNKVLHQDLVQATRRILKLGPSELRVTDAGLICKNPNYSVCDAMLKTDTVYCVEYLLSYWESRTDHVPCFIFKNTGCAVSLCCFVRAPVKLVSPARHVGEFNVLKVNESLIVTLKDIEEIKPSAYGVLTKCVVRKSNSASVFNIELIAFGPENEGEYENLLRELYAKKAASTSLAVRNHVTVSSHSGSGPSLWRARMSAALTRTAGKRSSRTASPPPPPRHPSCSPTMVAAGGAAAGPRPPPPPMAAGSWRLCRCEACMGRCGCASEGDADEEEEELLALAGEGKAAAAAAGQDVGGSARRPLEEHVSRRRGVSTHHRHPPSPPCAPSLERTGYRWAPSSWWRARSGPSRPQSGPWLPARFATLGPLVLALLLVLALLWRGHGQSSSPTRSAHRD

Target: HA-tagged murine or human IRE1 (Figure 7A) (not stated (human or mouse cDNA cloned)) (UniProt O75460)
Test: co-IP; 293A cells cotransfected, lysed after 24 h with RIPA buffer; IRE1-HA precipitated with an anti-HA antibody; coprecipitated proteins detected by immunoblot with anti-Flag or M50-specific antibody

UL50-Flag (Flag-tagged HCMV UL50) (from UniProt P16791 1-397)
binding: binds
